# Values joined by “and” are separate entries in the source; they are usually repeats but may differ in a detail not shown here. Equal entries are not always repeated. This continues a long series; more values of the same kind are listed elsewhere.
# Experiment: Weights and survival (Example 1, SCI-01)
# Format: in vivo, Syrian Golden Hamsters
# Protocol: All animals were weighed daily and their survival recorded, in order to assess possible differences in animal weight among treatment groups as an indication for mucositis severity and/or possible toxicity resulting from the treatments.
# The mean daily percent weight change data was evaluated. The saline (PBS) treated control hamsters gained an average of 70.4% of their starting weight during the study. Hamsters in the group receiving SCV-07 at 1 ug/kg on days −1 to 16 gained an average of 68.4% of their starting weight during the study. Hamsters in the group receiving SCV-07 at 10 ug/kg on days −1 to 16 gained an average of 70.3% of their starting weight during the study. Hamsters in the group receiving SCV-07 at 100 ug/kg on days −1 to 16 gained an average of 82.0% of their starting weight during the study. The significance of these differences was evaluated by calculating the area-under-the-curve (AUC) for the weight gain of each animal, and then comparing the different treatment groups using a One-Way ANOVA test.
smiles,measurement,setting,value
"N[C@H](CCC(=O)N[C@@H](Cc1c[nH]c2ccccc12)C(=O)O)C(=O)O [SCV-07, γ-D-glutamyl-L-tryptophan]",Animal weight,"Group 2, SCV-07 1 ug/kg sc qd, Day 0",96 and 86 and 80 and 83 and 81
same,Animal weight,"Group 2, SCV-07 1 ug/kg sc qd, Day 1",98 and 86 and 79 and 83 and 88 and 81 and 78
same,Animal weight,"Group 2, SCV-07 1 ug/kg sc qd, Day 2",100 and 89 and 84 and 86 and 91 and 83
same,Animal weight,"Group 2, SCV-07 1 ug/kg sc qd, Day 3",101 and 91 and 88 and 86 and 93 and 84
same,Animal weight,"Group 2, SCV-07 1 ug/kg sc qd, Day 4",103 and 94 and 90 and 89 and 95 and 96 and 86 and 87
same,Animal weight,"Group 2, SCV-07 1 ug/kg sc qd, Day 5",109 and 97 and 91 and 94 and 100 and 89
same,Animal weight,"Group 2, SCV-07 1 ug/kg sc qd, Day 6",111 and 99 and 95 and 98 and 105 and 101 and 94 and 93
same,Animal weight,"Group 2, SCV-07 1 ug/kg sc qd, Day 7",114 and 99 and 96 and 100 and 103 and 104 and 94
same,Animal weight,"Group 2, SCV-07 1 ug/kg sc qd, Day 8",116 and 102 and 101 and 103 and 105 and 97 and 98
same,Animal weight,"Group 2, SCV-07 1 ug/kg sc qd, Day 9",118 and 104 and 101 and 107 and 99 and 100
same,Animal weight,"Group 2, SCV-07 1 ug/kg sc qd, Day 10",117 and 104 and 100 and 102 and 106 and 98 and 97
same,Animal weight,"Group 2, SCV-07 1 ug/kg sc qd, Day 11",122 and 109 and 104 and 105 and 111 and 102
same,Animal weight,"Group 2, SCV-07 1 ug/kg sc qd, Day 12",123 and 110 and 105 and 107 and 114
same,Animal weight,"Group 2, SCV-07 1 ug/kg sc qd, Day 13",122 and 110 and 104 and 109 and 112 and 111 and 108
same,Animal weight,"Group 2, SCV-07 1 ug/kg sc qd, Day 14",123 and 110 and 107 and 111 and 116 and 112 and 106
same,Animal weight,"Group 2, SCV-07 1 ug/kg sc qd, Day 15",123 and 110 and 111 and 117 and 112 and 109 and 106
same,Animal weight,"Group 2, SCV-07 1 ug/kg sc qd, Day 16",129 and 115 and 112 and 116 and 121 and 113 and 111
same,Animal weight,"Group 2, SCV-07 1 ug/kg sc qd, Day 17",126 and 114 and 108 and 112 and 117 and 113 and 109
same,Animal weight,"Group 2, SCV-07 1 ug/kg sc qd, Day 18",133 and 118 and 117 and 119 and 125 and 116 and 115
same,Animal weight,"Group 2, SCV-07 1 ug/kg sc qd, Day 19",136 and 121 and 118 and 123 and 127 and 120
same,Animal weight,"Group 2, SCV-07 1 ug/kg sc qd, Day 20",137 and 120 and 118 and 122 and 128 and 119
same,Animal weight,"Group 2, SCV-07 1 ug/kg sc qd, Day 21",139 and 122 and 121 and 123 and 131 and 120
same,Animal weight,"Group 2, SCV-07 1 ug/kg sc qd, Day 22",141 and 125 and 123 and 124 and 132 and 121
same,Animal weight,"Group 2, SCV-07 1 ug/kg sc qd, Day 23",143 and 128 and 124 and 130 and 135 and 126 and 125
same,Animal weight,"Group 2, SCV-07 1 ug/kg sc qd, Day 24",143 and 129 and 124 and 131 and 133 and 128 and 126 and 125
same,Animal weight,"Group 2, SCV-07 1 ug/kg sc qd, Day 25",147 and 131 and 129 and 137 and 140 and 130
same,Animal weight,"Group 2, SCV-07 1 ug/kg sc qd, Day 26",148 and 134 and 131 and 133 and 140 and 130
same,Animal weight,"Group 2, SCV-07 1 ug/kg sc qd, Day 27",150 and 135 and 134 and 139 and 144 and 133 and 132
same,Animal weight,"Group 2, SCV-07 1 ug/kg sc qd, Day 28",152 and 138 and 135 and 147 and 136 and 137
same,Animal weight,"Group 2, SCV-07 1 ug/kg sc qd, Day -1",78 and 94 and 93 and 79 and 82 and 84
same,Animal weight,"Group 3, SCV-07 10 ug/kg sc qd, Day 0",83 and 90 and 87 and 76 and 93 and 95 and 91
same,Animal weight,"Group 3, SCV-07 10 ug/kg sc qd, Day 1",84 and 91 and 87 and 76 and 93 and 94 and 96
same,Animal weight,"Group 3, SCV-07 10 ug/kg sc qd, Day 2",87 and 94 and 90 and 79 and 96 and 98 and 95 and 100
same,Animal weight,"Group 3, SCV-07 10 ug/kg sc qd, Day 3",89 and 98 and 92 and 82 and 100 and 104
same,Animal weight,"Group 3, SCV-07 10 ug/kg sc qd, Day 4",92 and 100 and 93 and 84 and 103 and 106
same,Animal weight,"Group 3, SCV-07 10 ug/kg sc qd, Day 5",96 and 105 and 97 and 89 and 103 and 108 and 113
same,Animal weight,"Group 3, SCV-07 10 ug/kg sc qd, Day 6",98 and 107 and 90 and 106 and 109 and 101 and 116
same,Animal weight,"Group 3, SCV-07 10 ug/kg sc qd, Day 7",100 and 108 and 101 and 92 and 112 and 109 and 115
same,Animal weight,"Group 3, SCV-07 10 ug/kg sc qd, Day 8",102 and 111 and 103 and 96 and 109 and 114 and 113 and 120
same,Animal weight,"Group 3, SCV-07 10 ug/kg sc qd, Day 9",104 and 112 and 105 and 96 and 111 and 116 and 114 and 122
same,Animal weight,"Group 3, SCV-07 10 ug/kg sc qd, Day 10",103 and 113 and 104 and 96 and 110 and 115 and 124
same,Animal weight,"Group 3, SCV-07 10 ug/kg sc qd, Day 11",111 and 117 and 109 and 101 and 113 and 121 and 129
same,Animal weight,"Group 3, SCV-07 10 ug/kg sc qd, Day 12",112 and 120 and 109 and 101 and 117 and 124 and 121 and 130
same,Animal weight,"Group 3, SCV-07 10 ug/kg sc qd, Day 13",111 and 118 and 109 and 100 and 113 and 122 and 121 and 130
same,Animal weight,"Group 3, SCV-07 10 ug/kg sc qd, Day 14",111 and 115 and 103 and 102 and 110 and 122 and 121 and 129

# From patent US7906486B2, “Method of treating or preventing tissue deterioration, injury or damage due to disease of mucosa” (SciClone Pharmaceuticals, Inc., priority 2007, dated 2011)
